Test results: PubChem BioAssay AID485314 (National Center for Advancing Translational Sciences (NCATS), 2010)
The whole screen tested about 340,000 compounds, of which about 4,500 (1.3%) were called active. Inconclusive results, whose numbers are uncertain, are shown with a selection of clear calls. Calls follow the shape of the dose curve; as a rule, active = well fitted inhibition curve with a large enough effect; inconclusive = small, poorly fitted or top-dose-only effect, or another doubt; inactive = no such curve, though single readings can be large or run the other way. Where the call is inconclusive, the potency comes from a doubtful curve fit.

Molecular target: DNA polymerase beta (Homo sapiens) (UniProt P06746)
Assay: qHTS Assay for Inhibitors of DNA Polymerase Beta
Conditions: Pol beta primer extension/strand displacement, fluorescence kinetic; activity change, negative = inhibition: at 114 µM (top of the series)
Method in brief: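 Curves were derived by four-parameter Hill fits of normalized qHTS data. The kinetic fluorescent primer-extension read was taken at 0 and 10 min after 50 nM substrate, following a 15 min room-temperature preincubation of 10 nM enzyme with compounds.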
% is scaled to controls: 0 for no effect and ±100 for the full control effect; potency is read from the fitted curve at half-maximal effect.

Compound | Potency | activity change, negative = inhibition
O=[N+]([O-])c1cccc2ncccc12 | inconclusive: 0.891 µM [inhibitor, full curve] | 
Cc1ccc(/C=C2\SC(=S)N(C3CCS(=O)(=O)C3)C2=O)o1 (stereo unspecified) | active: 31.6 µM | 
CCCN(CCC)C(=O)Cn1c(=O)n(-c2ccc(CC)cc2)c(=O)c2ccc(C(=O)NCCc3ccccc3)cc21 |  | inactive: -2.32%
Cc1cccc(N2C(N)=NC(N)=NC23CCCCC3)c1 |  | inactive: 0.335%
O=C(Nc1ccc(S(=O)(=O)N2CCCCC2c2cccnc2)cc1)c1ccc(Br)cc1 (stereo unspecified) |  | inactive: -24.8%
O=C(Cn1cc2c(n1)CCCC2)Nc1ccccc1Cl | inconclusive: 17.8 µM [inhibitor, partial curve] | 
CCCCC1=CC2=CC(=O)C(C)(OC(=O)CC)C(=O)C2=CN1CCc1ccc(Br)cc1 (stereo unspecified) | inconclusive: 39.8 µM [inhibitor, single point] | 
Cc1ccc(SCC(=O)Nc2ccc(C(=O)Nc3ccc(O)cc3)cc2)cc1 | inconclusive: 7.94 µM [inhibitor, full curve] | 
CCOc1ccc(S(=O)(=O)Nc2cccc(-c3ccc(OCC)nn3)c2)cc1 | inconclusive: 89.1 µM [inhibitor, single point] | 
O=C(CSc1ncnc2ccccc12)Nc1ccc2c(c1)OCO2 | inconclusive: 89.1 µM [inhibitor, single point] | 
CCOC(=O)c1c(NC(=O)CSc2nnc(C)c(=O)[nH]2)sc2c1CCCC2 | inconclusive: 89.1 µM [inhibitor, single point] | 
COc1ccc(-n2ncc3c(NC4CCCC4)ncnc32)cc1 | inconclusive: 25.1 µM [inhibitor, single point] | 
CCOc1cc([N+](=O)[O-])cc(/C=C2/NC(=O)N(Cc3ccccc3F)C2=O)c1O | inconclusive: 5.01 µM [inhibitor, full curve] | 
COc1ccc(NC(=O)CSc2nnc(NC(C)=O)s2)c([N+](=O)[O-])c1 | inconclusive: 0.794 µM [inhibitor, full curve, poor fit] | 
COCc1c(C(=O)N/N=C/c2c[nH]c3ccccc23)nnn1-c1nonc1N | inconclusive: 63.1 µM [inhibitor, single point] | 
CC(=O)Nc1ccc(S(=O)(=O)Nc2ccc(N3CCOCC3)cc2)cc1 | inconclusive: 100 µM [inhibitor, partial curve, poor fit] | 
O=C(CN1C(=O)/C(=C\c2ccco2)SC1=S)Nc1ccc(O)cc1C(=O)O | active: 0.398 µM | 
Cc1cc(C)cc(-n2c(C)cc(C(=S)N3CCOCC3)c2C)c1 |  | inactive: 1.26%
O=C(CCN1C(=O)/C(=C/c2ccc(Cl)cc2)SC1=S)Nc1ccc(C(=O)O)cc1 |  | inactive: 36.8%
COc1cc(-c2n[nH]c(=S)n2-c2ccccc2C(F)(F)F)cc(OC)c1OC | inconclusive: 89.1 µM [inhibitor, single point] | 
Cc1ccc(C(=O)Nc2cccc3ncccc23)cc1[N+](=O)[O-] | inconclusive: 0.158 µM [inhibitor, full curve, poor fit] | 
Cc1cc(C)n(CC(C)C(=O)O)n1 (stereo unspecified) | inconclusive: 11.2 µM [inhibitor, full curve] | 
CC(=O)c1c(C)oc2c1cc(NS(=O)(=O)c1ccc(Br)cc1)c1ccccc12 |  | inactive: -18.5%
Cc1cccc(N2CCN(C(=O)CN3C(=O)CSc4c3c(C)nn4-c3ccccc3)CC2)c1C |  | inactive: 10.7%

Structures listed so far with bromine, in the order listed:
Compound | Potency | activity change, negative = inhibition
O=C(Nc1ccc(S(=O)(=O)N2CCCCC2c2cccnc2)cc1)c1ccc(Br)cc1 (stereo unspecified) |  | inactive: -24.8%
CCCCC1=CC2=CC(=O)C(C)(OC(=O)CC)C(=O)C2=CN1CCc1ccc(Br)cc1 (stereo unspecified) | inconclusive: 39.8 µM [inhibitor, single point] | 
CC(=O)c1c(C)oc2c1cc(NS(=O)(=O)c1ccc(Br)cc1)c1ccccc12 |  | inactive: -18.5%

Taken from above:
Potency, `O=C(Cn1cc2c(n1)CCCC2)Nc1ccccc1Cl` reads inconclusive: 17.8 µM [inhibitor, partial curve]
Potency, `O=C(CSc1ncnc2ccccc12)Nc1ccc2c(c1)OCO2` reads inconclusive: 89.1 µM [inhibitor, single point]

The list continues.

Compound | Potency | activity change, negative = inhibition
Cc1ccc(-c2nn(-c3ccccc3)cc2/C=C2\SC(=S)N(CCCCCC(=O)O)C2=O)o1 | active: 50.1 µM | 
CCOC(=O)C1CCN(c2ncnc3c2cnn3C)CC1 | active: 79.4 µM | 
O=C(CSc1nccn1-c1ccc(Cl)cc1)Nc1ccc(Cl)c(Cl)c1 | inconclusive: 39.8 µM [inhibitor, single point] | 
C/C(=N\NC(=O)c1cc(-c2cccc([N+](=O)[O-])c2)n[nH]1)c1ccccc1O | active: 11.2 µM | 
Cc1cccc(Nc2nnc(SCC(=O)NC3CCCc4ccccc43)s2)c1C (stereo unspecified) | inconclusive: 39.8 µM [inhibitor, single point] | 
O=C(/C=C/c1ccc(Br)cc1)NC(=S)Nc1ccc(S(=O)(=O)Nc2nccs2)cc1 | inconclusive: 3.55 µM [inhibitor, single point] | 
Cc1ccccc1C(=O)N1CCN(S(=O)(=O)c2ccccc2)CC1 |  | inactive: 48.7%
CCC(=O)c1ccc(N2CCN(C(=O)c3ccccc3Br)CC2)c(F)c1 | inconclusive: 0.708 µM [inhibitor, full curve, poor fit] | 
Cc1ccc(-n2c(C)nc3c(cnn3-c3ccc(F)cc3)c2=O)cc1C | inconclusive: 39.8 µM [inhibitor, single point] | 
COc1ccc(CCNCc2cc3ccc(C)cc3[nH]c2=O)cc1OC | inconclusive: 63.1 µM [inhibitor, single point] | 
COc1cccc(/C(O)=C2/C(=O)C(=O)N(Cc3cccnc3)C2c2ccco2)c1 (stereo unspecified) | inconclusive: 0.158 µM [inhibitor, full curve] | 
COc1cc(OC)cc(C(=O)Nc2cc3c(cc2N2CCCC2)n(C)c(=O)c(=O)n3C)c1 | inconclusive: 22.4 µM [inhibitor, full curve] | 
O=C(Nc1ccc(Oc2ccccc2)cc1)C1CCN(S(=O)(=O)c2ccc(Cl)cc2)CC1 |  | inactive: 0.848%
CCOc1ccc(CCNC(=O)c2ccc3c(c2)c(C)c(C)n3Cc2ccccc2)cc1OCC |  | inactive: 1.01%
Cc1ccc(C(=O)N/N=C\C=C\c2ccc(Br)cc2)cn1 | inconclusive: 12.6 µM [inhibitor, partial curve] | 
O=S(=O)(c1ccc(Cl)cc1)c1nc(-c2ccco2)oc1SCc1ccc(F)cc1 |  | inactive: 7.64%
CCOc1ccc(NC(=O)CN(C)Cc2cc(=O)n3c(-c4ccccc4)csc3n2)cc1OCC | active: 25.1 µM | 
COc1cc(/C=C(\C#N)C(=O)c2c[nH]c3ccccc23)cc(OC)c1O | inconclusive: 56.2 µM [inhibitor, single point] | 
CCOc1ccc2ccccc2c1/C=N/NC(=O)c1ccncc1 | active: 20 µM | 
C/C=C(/C)C(=O)O[C@@H]1[C@H](OC(C)=O)c2c(ccc3ccc(=O)oc23)OC1(C)C | inconclusive: 89.1 µM [inhibitor, single point] | 
Cc1ccc(F)c(NC(=O)/C(C#N)=C(\O)c2ccc(C(C)(C)C)cc2)c1 | active: 89.1 µM | 
c1ccc(-c2cc(-c3nn4c(-c5ccco5)nnc4s3)c3ccccc3n2)cc1 |  | inactive: -6.74%
CC(C)C(O)(C(=O)NNc1ccccc1)C(C)C |  | inactive: -10.5%
Cc1cc(NC(=O)CN(C)S(=O)(=O)c2cccc(Cl)c2)no1 | inconclusive: 100 µM [inhibitor, single point] | 

Compound | Potency | activity change, negative = inhibition
Cc1cn(-c2ccc(Br)cc2)[nH]c1=O | inconclusive: 89.1 µM [inhibitor, single point] | 
Fc1cccc(-n2ncc3c2ncn2nc(Cc4ccccc4)nc32)c1 |  | inactive: 8.5%
C=CCOc1ccc(/C=C2\SC(=S)N(NS(=O)(=O)c3ccccc3)C2=O)cc1 | inconclusive: 79.4 µM [inhibitor, single point] | 
CCSC1=C(C#N)C(=O)n2c1cc1c2CCCC1 | active: 39.8 µM | 
O=C(O)CCC(=O)N(Cc1cccs1)Cc1cccs1 | active: 44.7 µM | 
CCOc1ccc(-n2ccnc2SCC(=O)Nc2nc3ccc(C)cc3s2)cc1 | active: 25.1 µM | 
O=C1C2C3C=CC(C3)C2C(=O)N1c1ccc(N2CCN(c3ccccn3)CC2)c([N+](=O)[O-])c1 (stereo unspecified) | inconclusive: 0.126 µM [inhibitor, full curve, poor fit] | 
C/C(=N\NC(=O)Cc1ccc(Cl)cc1)c1cccc(NC(=O)c2cccnc2)c1 |  | inconclusive: -63.7% [inhibitor]
Cc1ccc2nc(-c3ccc(SCC(=O)Nc4nc(C)cs4)nc3)[nH]c2c1 | inconclusive: 20 µM [inhibitor, full curve] | 
CCc1ccc(-n2c(C)cc(/C=N/NC(=O)c3ccncc3)c2C)cc1 | inconclusive: 3.16 µM [inhibitor, full curve, poor fit] | 
CCOc1ccc(-n2c(SCC(=O)NCc3ccco3)nc3ccccc3c2=O)cc1 | inconclusive: 28.2 µM [inhibitor, partial curve] | 
CCOC(=O)c1nn(-c2ccccc2)c(=O)c2c(NC(C)=O)scc12 |  | inactive: -23.7%
O=C(/C=C/c1c(Cl)cccc1Cl)Nc1ccncc1 | inconclusive: 39.8 µM [inhibitor, partial curve] | 
O=C(NO)c1ccccc1O |  | inactive: 8.84%
Cc1ccc(Cl)cc1-n1c(=O)c2sc3ccccc3c2n(Cc2ccccc2)c1=O |  | inactive: 1.52%
O=C(N/N=C/c1ccc(F)cc1)c1ccccc1 |  | inactive: 24%
Cn1nnnc1SCc1nc2ccccc2s1 | inconclusive: 100 µM [inhibitor, single point] | 
O=C1NN=C(c2ccc(Br)cc2)CC1c1ccc(Cl)cc1 (stereo unspecified) | inconclusive: 63.1 µM [inhibitor, partial curve, poor fit] | 
CC(C)c1ccc2oc(-c3ccc(NC(=O)c4ncn[nH]4)cc3)nc2c1 | inconclusive: 39.8 µM [inhibitor, partial curve] | 
CCc1cccc2c(C(=O)Cn3nnc(-c4ccc(OC)c(OC)c4)n3)c[nH]c12 | inconclusive: 14.1 µM [inhibitor, full curve] | 
CCN(CC)CCNC(=O)c1cc(-c2ccco2)nc2ccccc12 |  | inactive: -8.82%
CCOc1ccccc1Nc1nnc(SCc2ccc(C(=O)OC)o2)s1 | inconclusive: 4.47 µM [inhibitor, full curve, poor fit] | 
Cc1nnc(NC(=O)CSc2nnc3c(n2)[nH]c2ccc(Br)cc23)s1 | inconclusive: 3.55 µM [inhibitor, full curve] | 
